# From the supplement of paper PMC8256030
# This is one part of the list. Single values are uncertain here, since repeats match poorly.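 HEK293T cells were given each compound shortly before transfection with a reporter in which red mCherry is followed by the SARS-CoV-2 frameshift element and then GFP in the −1 frame, so GFP appears only after frameshifting.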
# Test system: HEK293T
# Assay: percent viability (nuclei count) relative to control; higher = more viable cells
# Conditions: 10 µM; 24 h
row,Compound,percent viability [%]
1,CN1C(C(=O)Nc2nccs2)=C(O)c2ccccc2S1(=O)=O [sudoxicam],369
2,N#Cc1cc(I)c(O)c([N+](=O)[O-])c1 [nitroxinil],117
3,CC(C)(O)C(C)(O)c1ccc(Cl)cc1 (stereo not given) [phenaglycodol],38.6
4,CCCCC(CC)COC(=O)C(C#N)=C(c1ccccc1)c1ccccc1 (stereo not given) [octocrilene],16.4
5,O=C(O)c1cccc(/C=C2/C[C@@H]3[C@@H](/C=C/[C@@H](O)C4CCCCC4)[C@H](O)C[C@@H]3O2)c1 [taprostene],137
6,O=C(O)CP(=O)(O)O [fosfonet],194
7,Cc1cc(C(=O)NCCc2ccc(S(=O)(=O)NC(=O)NN3CCCCCC3)cc2)no1 [Glisoxepide],42
8,COc1ccc(-n2nc(C(N)=O)c3c2C(=O)N(c2ccc(N4CCCCC4=O)cc2)CC3)cc1 [apixaban],198
9,Cc1cccc(Nc2ccncc2S(=O)(=O)NC(=O)NC(C)C)c1 [torasemide],169
10,"C/C=C/c1ccc(OC)cc1 [Anethole, trans-]",118
11,Nc1ccc(S(=O)(=O)Nc2nccs2)cc1 [sulfathiazole],145
12,Cc1cc(S(=O)(=O)O)c2c(C)ccc(C(C)C)cc1-2 [sodium gualenate],140
13,C[C@@H](O)[C@@H]1NC(=O)[C@H](CCCCN)NC(=O)[C@@H](Cc2c[nH]c3ccccc23)NC(=O)[C@H](Cc2ccccc2)NC(=O)[C@@H](NC(=O)[C@H](N)Cc2ccccc2)CSSC[C@@H](C(=O)N[C@H](CO)[C@@H](C)O)NC1=O [Sandostatin],31.5
14,C#Cc1c[nH]c(=O)[nH]c1=O [eniluracil],354
15,Nc1nc(CC(=O)Nc2ccc(CCNC[C@H](O)c3ccccc3)cc2)cs1 [Mirabegron],256
16,CN(C)CCC=C1c2ccccc2COc2ccccc21,158
17,CCCN(CCC)S(=O)(=O)c1ccc(C(=O)O)cc1 [probenecid],160
18,CC1(C)S[C@@H]2[C@H](NC(=O)C(C(=O)O)c3ccccc3)C(=O)N2[C@H]1C(=O)O (stereo not given in full) [carbenicillin],226

# Another view of some results above.
row	Compound	percent viability [%]
5	O=C(O)c1cccc(/C=C2/C[C@@H]3[C@@H](/C=C/[C@@H](O)C4CCCCC4)[C@H](O)C[C@@H]3O2)c1 [taprostene]	137
6	O=C(O)CP(=O)(O)O [fosfonet]	194
7	Cc1cc(C(=O)NCCc2ccc(S(=O)(=O)NC(=O)NN3CCCCCC3)cc2)no1 [Glisoxepide]	42

# Going on with the list:

row,Compound,percent viability [%]
1,Cc1cccc(Nc2ccncc2S(=O)(=O)NC(=O)NC(C)C)c1 [Torasemide],264
2,Cc1c(Nc2ncccc2C(=O)O)cccc1C(F)(F)F [flunixin],91.5
3,CC(=O)N(O)CCCCCNC(=O)CCC(=O)N(O)CCCCCNC(=O)CCC(=O)N(O)CCCCCN [deferoxamine],175
4,NC(=O)[C@@H]1CCCN1C(=O)[C@H](Cc1c[nH]cn1)NC(=O)[C@@H]1CCC(=O)N1,334
5,CC1(C)S[C@@H]2[C@H](NC(=O)C(C(=O)O)c3ccccc3)C(=O)N2[C@H]1C(=O)O (stereo not given in full),187
6,CC[C@]1(O)C[C@@H]2CN(CCc3c([nH]c4ccccc34)[C@@](C(=O)OC)(c3cc4c(cc3OC)N(C)[C@H]3[C@@](O)(C(=O)OC)[C@H](OC(C)=O)[C@]5(CC)C=CCN6CC[C@]43[C@@H]65)C2)C1 [vinblastine],9.6
7,CC(C)c1ncc([N+](=O)[O-])n1C [ipronidazole],104
8,COCCCN1CCN(c2ccccc2OC)CC1 [dimetholizine],209
9,O=C(O)c1ccc(S(=O)(=O)N(Cl)Cl)cc1 [halazone],167
10,O=C(O)COc1ccc(C(=O)c2cccs2)c(Cl)c1Cl [tienilic acid],123
11,Cc1c(NC(=O)c2cccnc2)c(=O)n(-c2ccccc2)n1C [nifenazone],365
12,Oc1ccccc1/C=N/Cc1ccccc1 [norletimol],92.3
13,CCCCC(CC)COC(=O)CC(C(=O)OCC(CC)CCCC)S(=O)(=O)O (stereo not given) [docusate sodium],3.4
14,C[C@@H]1C[C@H]2[C@@H]3CCC4=CC(=O)C=C[C@]4(C)[C@@]3(F)[C@@H](O)C[C@]2(C)[C@@]1(O)C(=O)COP(=O)(O)O,117
15,CC(C)NC(=N)NC(=N)Nc1ccc(Cl)cc1 [Proguanil],269
16,C[C@]12CC[C@H]3[C@@H](CCC4=CC(=O)CC[C@@]43C)[C@@H]1CC[C@@H]2C(=O)CO [desoxycortone],154
17,CCc1c(Cl)c(O)c(Cl)c(O)c1C(=O)O[C@H]1[C@H](O)[C@H](OC)[C@H](OC/C2=C\C=C\C[C@H](O)/C(C)=C/[C@H](CC)[C@@H](O[C@@H]3OC(C)(C)[C@@H](OC(=O)C(C)C)[C@H](O)[C@@H]3O)/C(C)=C/C(C)=C/C[C@@H]([C@@H](C)O)OC2=O)O[C@@H]1C [Fidaxomicin],104
